Measured values from publication PMC6802650.
These are yes or no findings as the source states them, for the method shown. In cells and extracts the contact can be indirect. Some binding calls cover weakened binding; strength is not graded here.

By UniProt entry, the sequences of proteins in these tests, tags left out. Where a name states a change or a piece, a line headed by the entry shows the natural chain unless it says otherwise.
UniProt P56696: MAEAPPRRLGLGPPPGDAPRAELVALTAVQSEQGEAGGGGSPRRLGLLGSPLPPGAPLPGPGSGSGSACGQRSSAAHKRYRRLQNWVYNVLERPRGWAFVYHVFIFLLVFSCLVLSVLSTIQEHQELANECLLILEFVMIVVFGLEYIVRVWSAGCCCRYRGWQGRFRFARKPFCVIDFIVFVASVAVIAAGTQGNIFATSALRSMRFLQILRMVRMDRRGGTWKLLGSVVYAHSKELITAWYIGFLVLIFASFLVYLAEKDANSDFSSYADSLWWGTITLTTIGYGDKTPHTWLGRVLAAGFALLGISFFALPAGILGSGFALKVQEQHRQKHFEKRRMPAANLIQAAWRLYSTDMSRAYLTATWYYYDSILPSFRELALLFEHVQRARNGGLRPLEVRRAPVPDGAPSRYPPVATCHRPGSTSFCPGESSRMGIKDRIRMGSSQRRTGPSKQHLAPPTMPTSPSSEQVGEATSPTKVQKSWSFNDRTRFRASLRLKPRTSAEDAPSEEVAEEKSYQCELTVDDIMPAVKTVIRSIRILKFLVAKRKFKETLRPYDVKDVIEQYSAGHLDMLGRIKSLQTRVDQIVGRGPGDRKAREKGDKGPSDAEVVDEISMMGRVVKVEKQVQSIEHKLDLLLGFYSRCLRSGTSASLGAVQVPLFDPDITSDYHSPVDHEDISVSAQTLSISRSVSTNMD

target: FLAG-tagged WT KCNQ4 (human) (UniProt P56696); test: co-IP; cells cotransfected with FLAG-tagged WT KCNQ4 and Myc-tagged KCNQ4 clones; 36 h after transfection whole-cell lysates immunoprecipitated with anti-FLAG beads and immunoblotted

binding	Substance
binds	Myc-tagged KCNQ4 p.N264S (from UniProt P56696 1-695)
binds	Myc-tagged KCNQ4 p.R433W (from UniProt P56696 1-695)
binds	Myc-tagged KCNQ4 p.S273A (from UniProt P56696 1-695)

Further lines, the substance ahead of its results:

Substance	binding
Myc-tagged KCNQ4 p.L281M (from UniProt P56696 1-695)	binds
Myc-tagged KCNQ4 p.L295P (from UniProt P56696 1-695)	binds
Myc-tagged KCNQ4 p.S269F (from UniProt P56696 1-695)	binds
Myc-tagged KCNQ4 p.T278A (from UniProt P56696 1-695)	binds
